Values are the deposited “Percent Effect”, in %.
The controls that fix the scale are not given in the record; negative values are as filed.
This is an unselected part of the compounds tested.
A dash means the value is not listed here; it may have been measured.

Mtb growth Cornell: 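Whole-cell assay for inhibitors of Mycobacterium tuberculosis growth, labelled Cornell in the record; the read-out is not stated. The concentration is filed as 10 mM, unlikely as a test dose, so the dose is not known. Higher means stronger inhibition (inferred from two other growth screens of the library). About 53,000 compounds were tested under these conditions; 1.7% (about 900) showed 50% or more at least once.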
Mtb heat-shock: 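Assay on Mycobacterium tuberculosis, filed only as a heat shock assay from Cornell; the read-out is not stated. The concentration is filed as 10 mM, unlikely as a test dose, so the dose is not known. Higher reads as stronger inhibition (inferred: compounds with an IC50 in retests scored well above the rest). About 69,000 compounds were tested under these conditions; 1.4% (about 930) showed 50% or more at least once.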

| compound | Mtb growth Cornell | Mtb heat-shock |
|---|---|---|
| `O=C1CN([C@@H]2CC[C@@H](NS(=O)(=O)c3ccccc3)[C@H]2O)CCN1` | 55.41 | 15.61 |
| `N#Cc1ccccc1N1CCN(C(=O)NCC(=O)N2CCCC2)CC1` | - | 15.54 |
| `Cc1cccn2c(CNC(C)CCn3cccn3)cnc12` (stereo not drawn) | -15.43 | 13.38 |
| `COCc1ccccc1NC(=O)CCNC(=O)c1ccoc1` | 15.41 | 6.701 |
| `O=C(Nc1c(F)cccc1Oc1ccccc1)C1CCS(=O)(=O)C1` (stereo not drawn) | 16.71 | 12.23 |
| `[H][C@@]12CCN(Cc3cnn(C)c3)C[C@]1([H])[C@H](C(=O)NCCOC)CCO2` | 12.17 | 1.872 |
| `CC(NC(=O)COC1CCCC1)c1nc(-c2ccccc2)c[nH]1` (stereo not drawn) | 1.647 | -4.176 |
| `[H][C@]12CC[C@]([H])(CN(Cc3ccc(-n4cccn4)cc3)C1)N(CCC)C2` | 53.91 | 105.3 |
| `CN1CCN(C(=O)c2[nH]nnc2Nc2ccccc2F)CC1` | 0.4364 | -1.269 |
| `O=C1NCC2(CCCN(Cc3ccccc3OCCO)C2)O1` (stereo not drawn) | 2.933 | -1.194 |
| `Nc1cccnc1N1CCC(O)CC1` | 1.944 | 2.267 |
| `Cc1nn(C)c(N(C)C)c1CNCc1cccc(CN(C)C)c1.Cl` | - | 19.13 |
| `O=C(O)C(F)(F)F.O=C(O)C(F)(F)F.[H][C@@]12CN(CCOC)C[C@]1([H])[C@@H](OC)CCN2Cc1ccsc1` | -1.478 | -56.24 |
| `COC(=O)CCNC(=O)c1cc(-c2ccc(OC)cc2)nn1C` | 47.68 | 15.52 |
| `O=c1[nH]c2ncccc2n1C1CCCCC1` | -11.08 | 22.43 |
| `Cc1noc2ncc(S(=O)(=O)Nc3cc(CC(C)(C)C)[nH]n3)cc12` | - | 1.834 |
| `Cc1ccc(C2CN(C(=O)c3ccn(C)c(=O)c3)CCO2)nc1` (stereo not drawn) | -28.12 | -2.967 |
| `COc1cc(Cl)ccc1C(=O)NCC(=O)Nc1nccs1` | -2.105 | -5.264 |
| `Cn1ccc2c(cnc3nc(-c4ccncc4)nn32)c1=O` | -22.98 | -0.6552 |
| `CN(C)c1cc(CNC(=O)c2cc(F)ccc2F)ccn1` | - | -25.76 |
| `CCSCCC(C)N(C)C(=O)c1ccc2nncn2c1` (stereo not drawn) | -11.28 | -3.448 |
| `CC(C)n1ncc2c1NC(=O)CC21C(=O)Nc2c(Cl)ccc(Cl)c21` (stereo not drawn) | 22.43 | -8.877 |
| `CN(C)S(=O)(=O)N1CCOCC1CC(=O)NCCOc1ccccc1` (stereo not drawn) | 9.979 | 3.074 |
| `Cc1ccc(C(=O)Nc2cc(F)ccc2OCC2CCCO2)cn1` (stereo not drawn) | -22.89 | 8.042 |
| `Cc1nc2ccccn2c1CN1C[C@@H](CN2CCOCC2)[C@@H](CO)C1` | -13.32 | 5.864 |
| `Cc1nn(C)c(N(C)C)c1CNCc1ccccc1CN(C)C` | - | -11.21 |
| `CC1CN(Cc2ccc(C#N)cc2F)CCN1Cc1nccn1C` (stereo not drawn) | - | 22.59 |
| `Cc1cc(C(=O)N2CCOC(c3nc(C(C)C)n[nH]3)C2)no1` (stereo not drawn) | -11.36 | -6.417 |
| `O=C1CC(N2CCN(c3ccc(O)cc3)CC2)C(=O)N1Cc1cccs1` (stereo not drawn) | 104.3 | 27.02 |
| `CCc1nc(C2CCCN2Cc2ncc(C)c(OC)c2C)no1` (stereo not drawn) | 14.04 | -41.71 |
| `Cc1nc(C)n(CCNC(=O)C(C)n2ccnc2C(C)C)n1` (stereo not drawn) | 22.8 | -19.1 |
| `CN(C)CCn1ccnc1C1CCCN(C(=O)CCc2cccnc2)C1` (stereo not drawn) | 10.91 | -12.65 |
| `CC(C)C(C(=O)NCc1ccccc1-n1cccn1)N(C)C` (stereo not drawn) | 14.28 | 9.162 |
| `c1csc(-c2nc(CNC3CCc4ncnn4C3)cs2)c1` (stereo not drawn) | 15.63 | -3.44 |
| `FC(F)(F)Cn1cc(NCc2cscn2)cn1` | - | 7.199 |
| `Cc1ccc2cccc(S(=O)(=O)N(C)CC3CCN(C)C3)c2n1` (stereo not drawn) | -12.83 | 6.513 |
| `COc1ccccc1OC1CCN(Cc2cccnc2)CC1` | -26.36 | 20.89 |
| `Cl.O=C(CCC1CCCC1)NCCn1nc(C2CCNC2)c2cccnc21` (stereo not drawn) | - | 9.427 |
| `CC(NC(=O)NC1CCN(Cc2ccncc2)CC1)c1ccccc1F` (stereo not drawn) | 29.72 | -8.462 |
| `COc1ccc2c(c1)OCC(CNC(=O)CCc1c(C)n[nH]c1C)C2` (stereo not drawn) | 18.14 | -17.24 |
| `c1ncn(CC2CCCN(Cc3nnc(C4CC4)o3)C2)n1` (stereo not drawn) | - | -8.078 |
| `O=C(C1CCOC1)N1CCc2ncnc(NC3CCC3)c2CC1` (stereo not drawn) | 12.06 | -5.73 |
| `COCC1c2c(cnn2C)CCN1C(=O)c1cc(C)on1.O=C(O)C(F)(F)F` (stereo not drawn) | -15.74 | 28.69 |
| `COc1ccc(C)cc1CN(Cc1ncc(C)o1)C1CCN(C)C1` (stereo not drawn) | - | -8.186 |
| `CC(C)c1ccc(S(=O)(=O)N2CSCC2C(=O)NCC(F)(F)F)cc1` (stereo not drawn) | 11.48 | -2.752 |
| `CC[C@@H](C)[C@@H](N)C(=O)Nc1cccc(-c2cnc(NCCO)nc2)c1` | 13.45 | -15.68 |
| `Cn1cccc1C(=O)N1CCC2(CC1)CN(c1ccccc1)C(=O)CO2` | -11.2 | -6.6 |
| `COc1ccccc1-c1nc(C(=O)N2CCOCC2)n2ccncc12` | - | -17.42 |
| `CN(C)C(C(=O)N1CCSCC1)c1ccccc1F` (stereo not drawn) | 6.92 | 7.911 |
| `[H][C@@]12CS(=O)(=O)C[C@]1([H])N(Cc1nc3c(s1)CCCC3)CCN2CC(C)C` | -41.98 | -6.61 |
| `COCC(=O)NCc1cccc(Br)c1` | - | 23.55 |
| `CS(=O)(=O)N1CCC2(CC1)CC(NCC1CC1)c1ccccc12.O=C(O)C(F)(F)F` (stereo not drawn) | -9.524 | 1.272 |
| `COc1ccc(OC2CCN(C(=O)CCc3n[nH]c(N)n3)CC2)cc1` | - | -33.45 |
| `CN(C)C(=O)CCNC(=O)Nc1sc2ccccc2c1Cl` | - | 15.34 |
| `O=C(O)C(F)(F)F.O=C(O)C(F)(F)F.[H][C@@]12CN(Cc3cccc(C)n3)C[C@]1([H])OCCN2CCOC` | -5.532 | -1.731 |
| `CC(C)(CNC(=O)CCOc1cccc(F)c1)C(N)=O` | - | -25.64 |
| `Cc1n[nH]c(C)c1CN(C)C(C(=O)O)c1ccc2c(c1)OCO2` (stereo not drawn) | - | -3 |
| `CNC(=O)c1ccc(CNc2ccncc2Cl)cc1` | 18.44 | -3.656 |
| `CSC1(CNC(=O)CCc2ccc(Cl)s2)CCOCC1` | - | 38.32 |
| `CC(OCC1CC1)C(=O)NCc1cccc(CN2CCN(C)CC2)c1` (stereo not drawn) | - | -15.89 |
| `O=C(O)C(F)(F)F.[H][C@]12CCN(S(=O)(=O)c3ccccc3)C[C@@]1([H])OCCN(C)C2` | 25.08 | -6.046 |
| `CCC(C)C(=O)N(CC(=O)OC)c1cccc(C)n1` (stereo not drawn) | - | -0.6364 |
| `COc1cc(/C=C/c2ncc(C(=O)O)s2)cc(Cl)c1O` | - | 28.81 |
| `[H][C@@]12COC[C@]1(c1nnc(C3CC3)o1)CN(C(=O)c1cc(C)no1)C2` | 22.55 | 10.67 |

Some entries from above, unchanged:

- N#Cc1ccccc1N1CCN(C(=O)NCC(=O)N2CCCC2)CC1 | Mtb heat-shock: 15.54%
- Cc1n[nH]c(C)c1CN(C)C(C(=O)O)c1ccc2c(c1)OCO2 (stereo not drawn) | Mtb heat-shock: -3%
- CC(C)c1ccc(S(=O)(=O)N2CSCC2C(=O)NCC(F)(F)F)cc1 (stereo not drawn) | Mtb growth Cornell: 11.48%; Mtb heat-shock: -2.752%
- Cc1ccc(C(=O)Nc2cc(F)ccc2OCC2CCCO2)cn1 (stereo not drawn) | Mtb growth Cornell: -22.89%; Mtb heat-shock: 8.042%
- Cc1ccc(C2CN(C(=O)c3ccn(C)c(=O)c3)CCO2)nc1 (stereo not drawn) | Mtb growth Cornell: -28.12%; Mtb heat-shock: -2.967%
- CC(C)n1ncc2c1NC(=O)CC21C(=O)Nc2c(Cl)ccc(Cl)c21 (stereo not drawn) | Mtb growth Cornell: 22.43%; Mtb heat-shock: -8.877%

Data taken from ChEMBL document CHEMBL3988442, “University of Dundee, Small-Polar-MMV Screening Library” (2021).